Tested on: Thrombusbildung
Assay: Stenosis-induced spontaneous coronary thrombus formation in anaesthetised dogs (shake loose, Folts)
Type: in vivo, Hunde
Details: x ± SE; after stenosis, before substance

Structure (SMILES): COc1ccc2nc(-c3ccc(OCC(O)CNC(C)(C)C)cc3)n(C)c(=O)c2c1 (single isomer, unassigned; (-)) [Verbindung C, (-)-2-2[4-(2-Hydroxy-3-tert.butylamino-propoxy)-phenyl]-3-methyl-6-methoxy-3,4-dihydro-chinazolin-4-on]
- Fluß im Ramus circumflexus der Arteria coronaria sinistra, Nach Stenose: 19 ± 3 mL/min

Structure (SMILES): CC(C)NCC(O)COc1ccc(CC(N)=O)cc1 (centres unmarked) [Atenolol, reference compound]
- Fluß im Ramus circumflexus der Arteria coronaria sinistra, Nach Stenose: 15 ± 3 mL/min

Structure (SMILES): CC(C)NCC(O)COc1cccc2ccccc12 (centres unmarked) [Propranolol, reference compound]
- Fluß im Ramus circumflexus der Arteria coronaria sinistra, Nach Stenose: 23 ± 4 mL/min

Structure (SMILES): COc1ccc2cc(-c3ccc(OCC(O)CNC(C)(C)C)cc3)n(C)c(=O)c2c1 (centres unmarked) [Verbindung A, 2-Methyl-3-[4-(2-hydroxy-3-tert.butylamino-propoxy)-phenyl]-7-methoxy-isochinolin-1-(2H)-on]
- Fluß im Ramus circumflexus der Arteria coronaria sinistra, Nach Stenose: 24 ± 4 mL/min

Structure (SMILES): COc1ccc2nc(-c3ccc(OCC(O)CNC(C)(C)C)cc3)n(C)c(=O)c2c1 (centres unmarked) [Verbindung B, 2-[4-(2-Hydroxy-3-tert.butylamino-propoxy)-phenyl]-3-methyl-6-methoxy-3,4-dihydro-chinazolin-4-on]
- Fluß im Ramus circumflexus der Arteria coronaria sinistra, Nach Stenose: 15 ± 4 mL/min

Reference: EP0210342A2, “Medicament containing pyridinones having an antithrombotic activity” (Dr. Karl Thomae GmbH, priority 1985, dated 1987)
